Assay results as given in paper PMC10800354.
These are yes or no findings as the source states them, for the method shown. Binding seen in cells or lysates may run through a third protein. Some entries that bind do so weakly or less than the wild type. For part of these data: Where a sequence is shown, tags or fusion partners need not be part of it.

By UniProt entry, the sequences of proteins in these tests, tags left out.
UniProt Q9HCJ5: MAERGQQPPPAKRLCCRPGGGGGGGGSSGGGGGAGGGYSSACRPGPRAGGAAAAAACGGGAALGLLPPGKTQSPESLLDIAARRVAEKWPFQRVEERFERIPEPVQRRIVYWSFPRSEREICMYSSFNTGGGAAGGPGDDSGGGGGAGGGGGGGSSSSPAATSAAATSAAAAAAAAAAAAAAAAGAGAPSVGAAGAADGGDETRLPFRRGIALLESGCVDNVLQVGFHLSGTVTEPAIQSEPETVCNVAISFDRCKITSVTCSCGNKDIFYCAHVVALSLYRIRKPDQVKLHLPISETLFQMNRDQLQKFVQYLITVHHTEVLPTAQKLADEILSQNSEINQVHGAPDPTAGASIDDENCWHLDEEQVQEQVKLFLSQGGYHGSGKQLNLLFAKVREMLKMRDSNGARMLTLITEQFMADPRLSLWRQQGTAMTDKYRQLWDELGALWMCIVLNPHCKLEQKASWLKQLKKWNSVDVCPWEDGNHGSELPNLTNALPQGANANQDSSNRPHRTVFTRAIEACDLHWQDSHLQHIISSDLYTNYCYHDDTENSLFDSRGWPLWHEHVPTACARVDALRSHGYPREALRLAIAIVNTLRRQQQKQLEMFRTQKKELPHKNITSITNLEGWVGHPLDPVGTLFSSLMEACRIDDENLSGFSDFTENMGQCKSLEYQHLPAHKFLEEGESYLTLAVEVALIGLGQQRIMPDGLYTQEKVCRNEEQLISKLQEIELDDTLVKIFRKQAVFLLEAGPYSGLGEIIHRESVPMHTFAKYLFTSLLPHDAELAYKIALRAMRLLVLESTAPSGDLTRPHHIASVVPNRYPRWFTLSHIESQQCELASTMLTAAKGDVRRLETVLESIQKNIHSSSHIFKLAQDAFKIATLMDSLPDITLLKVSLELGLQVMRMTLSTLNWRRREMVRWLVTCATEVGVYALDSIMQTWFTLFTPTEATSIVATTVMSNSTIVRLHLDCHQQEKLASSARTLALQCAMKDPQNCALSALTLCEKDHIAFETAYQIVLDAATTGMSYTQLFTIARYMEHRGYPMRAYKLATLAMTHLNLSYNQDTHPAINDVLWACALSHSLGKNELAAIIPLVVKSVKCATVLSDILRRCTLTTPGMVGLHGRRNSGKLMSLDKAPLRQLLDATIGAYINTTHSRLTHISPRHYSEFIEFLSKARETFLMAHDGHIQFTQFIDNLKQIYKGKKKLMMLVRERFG

Key:
[1] = target: T1, N-acetyltransferase 10 (NAT10), endogenous (human (endogenous in SCC-15)) (UniProt Q9H0A0); assay: co-IP; endogenous proteins in SCC-15, IP with anti-NAT10 or anti-ZSWIM6 antibody after RNPS1 knockdown and MG132 treatment; anti-IgG as negative control
T1 sequence: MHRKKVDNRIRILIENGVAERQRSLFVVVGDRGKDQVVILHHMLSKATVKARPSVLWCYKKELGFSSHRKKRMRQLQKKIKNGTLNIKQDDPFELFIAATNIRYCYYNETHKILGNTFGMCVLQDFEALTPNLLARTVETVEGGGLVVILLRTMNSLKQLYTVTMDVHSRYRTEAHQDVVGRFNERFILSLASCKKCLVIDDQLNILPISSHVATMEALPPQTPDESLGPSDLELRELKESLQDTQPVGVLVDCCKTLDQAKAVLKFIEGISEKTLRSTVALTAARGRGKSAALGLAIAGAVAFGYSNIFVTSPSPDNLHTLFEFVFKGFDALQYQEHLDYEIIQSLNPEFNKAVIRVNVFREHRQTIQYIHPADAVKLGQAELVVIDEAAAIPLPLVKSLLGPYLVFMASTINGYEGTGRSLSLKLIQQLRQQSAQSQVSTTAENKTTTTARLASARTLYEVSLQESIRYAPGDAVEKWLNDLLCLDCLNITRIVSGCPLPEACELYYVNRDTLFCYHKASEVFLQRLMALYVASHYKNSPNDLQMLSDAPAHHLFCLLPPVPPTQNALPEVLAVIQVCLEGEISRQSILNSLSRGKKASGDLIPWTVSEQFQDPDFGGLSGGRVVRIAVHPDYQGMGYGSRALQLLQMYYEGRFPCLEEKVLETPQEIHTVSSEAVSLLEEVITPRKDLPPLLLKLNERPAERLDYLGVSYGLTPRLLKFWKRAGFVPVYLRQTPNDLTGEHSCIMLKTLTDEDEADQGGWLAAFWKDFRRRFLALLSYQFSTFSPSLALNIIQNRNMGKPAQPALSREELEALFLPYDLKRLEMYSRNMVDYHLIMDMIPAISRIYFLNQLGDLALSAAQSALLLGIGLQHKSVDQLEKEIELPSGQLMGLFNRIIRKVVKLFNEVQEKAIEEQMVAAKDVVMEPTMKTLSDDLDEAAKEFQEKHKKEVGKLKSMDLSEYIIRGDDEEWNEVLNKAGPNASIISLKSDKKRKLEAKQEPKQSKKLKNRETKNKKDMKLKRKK

Flag-NAT10 in 293T cells = target: T2, Flag-NAT10 in 293T cells (UniProt Q9H0A0); assay: co-IP; 293T cells transiently co-transfected with Flag-NAT10 and HA-ZSWIM6 plasmids, treated with RNPS1 knockdown and MG132
T2 sequence: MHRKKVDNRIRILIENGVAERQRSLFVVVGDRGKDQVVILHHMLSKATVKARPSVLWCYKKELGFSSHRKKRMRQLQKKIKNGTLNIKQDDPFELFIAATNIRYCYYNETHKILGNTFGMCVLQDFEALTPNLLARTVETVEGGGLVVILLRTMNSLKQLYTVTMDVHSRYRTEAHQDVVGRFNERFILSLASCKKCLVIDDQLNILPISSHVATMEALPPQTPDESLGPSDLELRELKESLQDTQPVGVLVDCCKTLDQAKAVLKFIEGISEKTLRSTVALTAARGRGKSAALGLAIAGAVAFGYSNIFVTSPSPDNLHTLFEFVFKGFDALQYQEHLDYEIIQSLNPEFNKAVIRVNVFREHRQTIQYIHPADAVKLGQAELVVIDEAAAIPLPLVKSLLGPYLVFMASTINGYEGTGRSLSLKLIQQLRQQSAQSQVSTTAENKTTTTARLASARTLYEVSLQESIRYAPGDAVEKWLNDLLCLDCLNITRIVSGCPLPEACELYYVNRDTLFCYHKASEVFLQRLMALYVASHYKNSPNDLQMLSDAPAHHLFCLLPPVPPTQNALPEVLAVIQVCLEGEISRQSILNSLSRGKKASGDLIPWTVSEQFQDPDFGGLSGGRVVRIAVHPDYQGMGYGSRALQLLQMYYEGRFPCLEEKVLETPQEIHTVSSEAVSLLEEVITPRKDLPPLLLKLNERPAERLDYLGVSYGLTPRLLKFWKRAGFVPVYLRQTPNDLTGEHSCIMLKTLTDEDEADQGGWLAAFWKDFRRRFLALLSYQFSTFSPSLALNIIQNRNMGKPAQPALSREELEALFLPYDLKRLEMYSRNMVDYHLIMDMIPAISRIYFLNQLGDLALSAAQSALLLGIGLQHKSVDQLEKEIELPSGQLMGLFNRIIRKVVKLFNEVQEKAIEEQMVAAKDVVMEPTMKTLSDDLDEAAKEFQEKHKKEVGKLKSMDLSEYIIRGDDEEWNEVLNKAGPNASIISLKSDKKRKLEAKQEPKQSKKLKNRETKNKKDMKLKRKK

[2] = target: T1, N-acetyltransferase 10 (NAT10), endogenous (human (endogenous in SCC-15)); assay: co-IP; endogenous proteins from SCC-15 cell extracts, IP with anti-NAT10 or anti-RNPS1 antibody, anti-IgG as negative control, immunoblot

“zinc finger SWIM domain-containing protein 6 (ZSWIM6), endogenous (from UniProt Q9HCJ5 1-1215)” was tested, and the binding [1] was “binds”.

With “HA-ZSWIM6 in 293T cells (from UniProt Q9HCJ5 1-1215)” the binding (Flag-NAT10 in 293T cells) was “binds”.

B1: RNA-binding protein with serine-rich domain 1 (RNPS1), endogenous (protein, UniProt Q15287 1-305)
chain: MDLSGVKKKSLLGVKENNKKSSTRAPSPTKRKDRSDEKSKDRSKDKGATKESSEKDRGRDKTRKRRSASSGSSSTRSRSSSTSSSGSSTSTGSSSGSSSSSASSRSGSSSTSRSSSSSSSSGSPSPSRRRHDNRRRSRSKSKPPKRDEKERKRRSPSPKPTKVHIGRLTRNVTKDHIMEIFSTYGKIKMIDMPVERMHPHLSKGYAYVEFENPDEAEKALKHMDGGQIDGQEITATAVLAPWPRPPPRRFSPPRRMLPPPPMWRRSPPRMRRRSRSPRRRSPVRRRSRSPGRRRHRSRSSSNSSR
With B1 the binding [2] was “binds”.
